The values below come from paper PMC5996148.

By UniProt entry, the sequences of proteins in these tests, tags left out. Where a name states a change or a piece, a line headed by the entry shows the natural chain unless it says otherwise.
UniProt Q9Y617: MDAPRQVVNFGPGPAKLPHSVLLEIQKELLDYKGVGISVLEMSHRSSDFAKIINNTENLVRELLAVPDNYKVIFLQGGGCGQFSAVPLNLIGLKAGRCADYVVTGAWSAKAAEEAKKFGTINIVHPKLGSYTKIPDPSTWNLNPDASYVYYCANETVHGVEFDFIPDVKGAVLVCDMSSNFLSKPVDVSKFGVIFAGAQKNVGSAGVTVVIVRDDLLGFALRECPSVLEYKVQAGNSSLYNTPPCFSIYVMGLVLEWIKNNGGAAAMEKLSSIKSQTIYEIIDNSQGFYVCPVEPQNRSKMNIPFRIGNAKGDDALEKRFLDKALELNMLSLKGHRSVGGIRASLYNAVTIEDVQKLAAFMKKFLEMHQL

Some test systems named below: PREP (human); PRKACB (human); PRKAR2A (human); PRKCZ (human); PRKRIR (human); PRMT6 (human); PRMT7 (human); PROCR (human); PRPS1 (human); PRPSAP2 (human); PRRG1 (human); PRRT2 (human); PRSS23 (human); PSCD4 (human); PSENEN (human); PSG11 (human).
What all share (experiment): protein microarray (ProtoArray v5.0), streptavidin-Alexa Fluor 647
Holding throughout (conditions): 3'-biotin; 20 mM Tris (pH 7.5), 5 mM MgCl2, 100 mM KCl, 0.1% Tween-20, A/T-rich and random oligonucleotide blockers; temperature not stated; high values mean tight binding

For another assay, the target named is T1, PRKRIP1 (UniProt Q9H875).
T1 sequence: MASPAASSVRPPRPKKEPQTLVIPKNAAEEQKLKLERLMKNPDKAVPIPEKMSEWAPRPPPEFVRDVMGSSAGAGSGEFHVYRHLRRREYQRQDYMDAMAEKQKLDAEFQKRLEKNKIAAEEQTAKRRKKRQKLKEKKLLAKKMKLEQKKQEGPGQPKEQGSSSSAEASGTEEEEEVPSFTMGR

For a further assay, the target named is T2, PRRG2 (UniProt O14669).
T2 sequence: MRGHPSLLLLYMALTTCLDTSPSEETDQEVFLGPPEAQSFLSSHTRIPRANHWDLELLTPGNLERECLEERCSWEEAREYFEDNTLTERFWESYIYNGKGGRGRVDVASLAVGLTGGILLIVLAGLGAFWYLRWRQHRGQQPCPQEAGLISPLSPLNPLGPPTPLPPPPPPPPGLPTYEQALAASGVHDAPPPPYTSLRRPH

The target of another assay is PSAT1 (UniProt Q9Y617).
In another assay the target is T3, PSCD2 (UniProt Q99418).
T3 sequence: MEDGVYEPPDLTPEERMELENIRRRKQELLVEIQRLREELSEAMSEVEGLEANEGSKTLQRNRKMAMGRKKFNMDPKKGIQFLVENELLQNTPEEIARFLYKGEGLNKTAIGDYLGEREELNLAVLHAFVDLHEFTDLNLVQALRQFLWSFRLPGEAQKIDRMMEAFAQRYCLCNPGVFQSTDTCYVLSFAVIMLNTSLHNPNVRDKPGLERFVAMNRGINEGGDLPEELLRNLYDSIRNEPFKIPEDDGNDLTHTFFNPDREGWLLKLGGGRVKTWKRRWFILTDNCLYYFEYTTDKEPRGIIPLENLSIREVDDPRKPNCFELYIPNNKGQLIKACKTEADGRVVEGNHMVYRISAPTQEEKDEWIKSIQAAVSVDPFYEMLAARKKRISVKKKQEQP

This is one part of the list. For some assays here: The source does not settle which construct or isoform was used.

Take “GGGAGGCTGAGGCAGG [G4-1 biotinylated (PQS2)]”: the binding signal in the assay with PREP (human) is -0.306 z-score; with PRKACB (human) it was -0.339 z-score; in the assay on PRKAR2A (human), -0.271 z-score; with PRKCZ (human), -0.295 z-score; with PRKRIP1, 3.6 z-score; in the assay on PRKRIR (human) it was -0.334 z-score. The binding signal in the assay on PRMT6 (human) is -0.255 z-score; in the assay on PRMT7 (human), -0.358 z-score; with PROCR (human) it was -0.33 z-score; in the assay on PRPS1 (human), -0.286 z-score; in the assay on PRPSAP2 (human), -0.329 z-score; with PRRG1 (human), -0.33 z-score. For the same sequence, the binding signal with PRRG2 was -0.352 z-score; in the assay with PRRT2 (human), -0.342 z-score; with PRSS23 (human) it was -0.3 z-score; in the assay with PSAT1, -0.353 z-score; in the assay with PSCD2 it was -0.339 z-score; in the assay with PSCD4 (human) it was -0.303 z-score. The binding signal in the assay with PSENEN (human) was -0.295 z-score; with PSG11 (human) it was -0.315 z-score.
